Results published in patent US11697818B2, “Pyruvate-responsive biosensor, and construction method and use thereof” (priority 2020, dated 2023).
At least one compound was matched to its structure with a doubt left.

Test system: strain 168-PR containing the plasmid PHT01-P43D-GFP
Experiment: Specificity (orthogonality) of pyruvate biosensor towards inducing agents
Assay type: cell-based, Bacillus subtilis
Conditions: 5 g of inducing agent added to the medium; strain 168-PR with PHT01-P43D-GFP
Method: 2. Detection method for Relative fluorescence intensity: The strain to be determined for the fluorescence intensity is streaked into LB solid medium containing chloramphenicol (5 μg/mL) in a plate. Single colonies are picked up and inoculated into LB liquid medium and incubated at 37° C. and 220 rpm for 12 h. Then the cell suspension is inoculated into 200 μL of LB liquid medium in a 96-well fluorescent microplate in an amount of 2% (V/V), and incubated at 37° C. and 900 rpm. The microplate is removed at different times, and the fluorescence intensity (excitation light: 488 nm, absorption light: 520 nm) and cell density (600 nm) are determined on the Cytation microplate reader (BioTek).

CC(=O)C(=O)O [pyruvate]
induction of the activity of the pyruvate biosensor: significantly induce
